This is one part of the list. Further columns of the screen follow, without active or inactive calls. Most of these compounds were active or inconclusive in the main read-out, so they are no random draw. The note in brackets gives the kind of curve behind each potency; many fits are weak.
Assay: qHTS Assay for Lipid Storage Modulators in Drosophila S3 Cells;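 for cell number change: cells counted by Cell Tracker Red CMTPX staining in the red channel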
Conditions: BODIPY lipid droplet fluorescence, 18-24 h; for cell number change: measured here: cell count max response, cells fed with added oleic acid
Summary of the method: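 Drosophila S3 cells loaded with oleic acid (400 uM, as added) and compounds at several concentrations; lipid droplets imaged by 488-nm laser-scanning cytometry, 500–530 nm intensity and object ratio to cell channel. Percent activity normalized to 20 uM Triacsin C.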

[1] = measured here: cell number channel AC50, cells fed with added oleic acid
[2] = measured here: lipid fluorescence (Fed channel) AC50, cells fed with added oleic acid

| SMILES | cell number change [%] | AC50 [1] | AC50 [2] |
| --- | --- | --- | --- |
| Cc1ccccc1-n1nc(-c2cccnc2)cc1C(=O)N/N=C/c1ccncc1 | 32.5 | 8.2 µM [rising, single point] | 16.4 µM [rising, single point] |
| CC(C)c1cc(=O)oc2c3c4c(cc12)CCCN4CCC3 | -3.3 | – | 29.1 µM [rising, single point] |
| COc1ccc(NC(=O)COC(=O)CCNS(=O)(=O)c2ccccc2)cc1OC | -18.8 | – | 3.66 µM [falling, full curve] |
| CCN(C(=O)c1cc(Cl)ccc1OC)c1ccccc1 | 15.2 | – | – |
| O=C(c1cc(Br)c(Br)s1)N1CCN(c2ccccn2)CC1 | 12.4 | – | 5.17 µM [falling, partial curve] |
| CCOc1ccc(CCNC(=O)C2CCN(c3ccc(N4CCOCC4)nn3)CC2)cc1OCC | 5.09 | – | – |
| CC(NC(=O)/C(C#N)=C/c1cn(-c2ccccc2)nc1-c1ccc(F)cc1)c1ccccc1 (stereo not given) | 18.8 | – | 1.16 µM [rising, full curve] |
| Cc1ccc(OCC(=O)NCCNC(=O)c2ccncc2)cc1 | -3.81 | – | – |
| COc1cccc(/C=C/C(=O)Nc2ccc3[nH]c(=O)[nH]c3c2)c1 | -14.6 | – | – |
| O=C(NCc1ccccn1)c1cc2cc(Br)ccc2oc1=O | 9.99 | – | 29.1 µM [falling, single point] |
| Cc1ccnc(NS(=O)(=O)c2ccc(NC(=O)CCc3ccccc3)cc2)n1 | 5.56 | 3.66 µM [rising, partial curve, poor fit] | – |
| O=C1C2C3C=CC(C3=C(c3ccccc3)c3ccccc3)C2C(=O)N1CCO (stereo not given) | 41.3 | 18.4 µM [rising, partial curve, poor fit] | – |
| COc1ccc(CN2C(=O)c3ccccc3C2C(=O)NCC2CCCO2)c(OC)c1 (stereo not given) | 10.3 | – | 0.651 µM [rising, single point] |
| CN(Cc1cccs1)C(=O)CSc1nc(N)cc(N)n1 | 13.3 | – | – |
| CC(CCc1ccccc1)NC(=O)CSc1nccc(=O)[nH]1 (stereo not given) | 5.14 | – | 0.00461 µM [rising, full curve, poor fit] |
| CCOc1cc(/C=N/Nc2nnc(C)n2N)ccc1OC(C)=O | -30.4 | 29.1 µM [falling, single point] | 20.6 µM [falling, single point] |
| O=C(NCc1ccc2c(c1)OCO2)C1CCN(c2ccc(S(=O)(=O)N3CCCC3)cc2)CC1 | – | 0.58 µM [rising, single point] | 0.92 µM [rising, full curve] |
| CCc1ccc(OCc2nnc(SCC(=O)NCC3CCCO3)n2C)cc1 (stereo not given) | 16.7 | – | – |
| O=C(Cn1cnc2ccccc2c1=O)NC1CCS(=O)(=O)C1 (stereo not given) | -23.8 | 6.51 µM [falling, partial curve, poor fit] | – |
| CCc1ccc2oc(=O)cc(CN(C)Cc3ccccc3)c2c1 | -5.88 | – | – |
| CCc1ccc(NC(=O)C(=O)c2ccccc2NC(C)=O)cc1 | -1.42 | – | 16.4 µM [rising, partial curve, poor fit] |
| Cn1c(C(=O)NCCN2CCOCC2)cc2c(=O)n(C)c3ccccc3c21 | -25.7 | – | 25.9 µM [falling, single point] |

Quoted at random: 3 records from the list.

| SMILES | cell number change [%] | AC50 [1] | AC50 [2] |
| --- | --- | --- | --- |
| COc1cccc(/C=C/C(=O)Nc2ccc3[nH]c(=O)[nH]c3c2)c1 | -14.6 | – | – |
| CCc1ccc2oc(=O)cc(CN(C)Cc3ccccc3)c2c1 | -5.88 | – | – |
| COc1ccc(NC(=O)COC(=O)CCNS(=O)(=O)c2ccccc2)cc1OC | -18.8 | – | 3.66 µM [falling, full curve] |

Next part:

| SMILES | cell number change [%] | AC50 [1] | AC50 [2] |
| --- | --- | --- | --- |
| CC1(C)CC2CC(C)(CN2C(=O)C23CCC(C)(C(=O)C2)C3(C)C)C1 (stereo not given) | -9.45 | – | 5.8 µM [falling, single point] |
| CCOC(=O)Cn1nc(C)n(-c2ccc(Br)cc2)c1=O | -20 | – | – |
| C=CCn1c(C(c2ccccc2)c2ccccc2)n[nH]c1=S | – | – | 6.51 µM [falling, single point] |
| CC(C)=CC(=O)N1CCCC(N2CCN(c3ccc(F)cc3)CC2)C1 (stereo not given) | -9.38 | – | – |
| CCN(C(=O)COC(=O)c1cccnc1Nc1cccc(C(F)(F)F)c1)C1CCS(=O)(=O)C1 (stereo not given) | 13.1 | 5.17 µM [falling, single point] | 6.51 µM [falling, partial curve] |
| O=C1CSC2=NCN(c3ccccc3)CN12 | -54.8 | 29.1 µM [falling, single point] | – |
| Cn1c(=NC(=O)c2ccccc2[N+](=O)[O-])sc2cccc(F)c21 | 12.4 | 2.31 µM [rising, partial curve] | – |
| O=C(Nc1cccc(S(=O)(=O)N2CCCCCC2)c1)c1ccc(=O)[nH]c1 | -1.69 | 0.00517 µM [falling, full curve, poor fit] | 0.00517 µM [falling, full curve, poor fit] |
| c1ccc(-c2cnnn2-c2ccccc2)cc1 | 31.6 | 32.6 µM [rising, single point] | 29.1 µM [rising, single point] |
| Cc1ccc(NC(=O)C2=CC(c3ccc(C)cc3)=NS(=O)(=O)N2C)cc1 | 38.9 | 5.17 µM [rising, partial curve] | 16.4 µM [falling, partial curve] |
| S=C(NCc1ccc(Cl)cc1Cl)NC1CCCCC1 | – | – | 0.58 µM [rising, full curve] |
| CC(=O)c1c[nH]c(C(=O)Nc2ccc(N3CCCCCC3)cc2)c1 | -36.9 | 29.1 µM [falling, single point] | 9.2 µM [falling, single point] |
| O=c1oc(-c2ccccc2)nc2sc3c(c12)CCC3 | 19.6 | – | 9.2 µM [rising, partial curve] |
| COc1ccc(OC)c(S(=O)(=O)N2CCN(c3ccccc3)CC2)c1 | 12.7 | – | 3.66 µM [rising, full curve, poor fit] |
| COc1ccc2nc(N=NC3=C(O)CC(C)(C)CC3=O)sc2c1 | -45.8 | 0.058 µM [falling, full curve, poor fit] | 1.46 µM [falling, partial curve] |
| O=C(CCN1C(=O)c2ccccc2C1=O)N(CCO)Cc1ccccc1 | 10.7 | – | – |
| COc1ccc(S(=O)(=O)Nc2ccccc2C(=O)NCc2cccnc2)cc1C | 3.81 | – | – |
| CN1CCC(N(C)C(=O)c2ccccc2F)CC1 | -7.92 | – | 1.64 µM [falling, partial curve] |
| COc1ccccc1OCC(=O)NCC1CCCCC1 | – | 3.66 µM [rising, single point] | – |
| COc1ccc(NS(=O)(=O)c2cccc(C(=O)NNC(=O)c3ccc(C)o3)c2)cc1 | 13.6 | 6.51 µM [falling, single point] | 1.03 µM [rising, full curve, poor fit] |
| CCCCC[n+]1ccn(-c2nc3ccccc3nc2[N-]S(=O)(=O)c2ccccc2)c1 | -2.67 | – | 1.84 µM [rising, partial curve, poor fit] |
| Cc1ccc2[nH]c(C(=O)O)c(-c3ccccc3)c2c1 | -5.75 | – | 13 µM [falling, partial curve, poor fit] |

| SMILES | cell number change [%] | AC50 [1] | AC50 [2] |
| --- | --- | --- | --- |
| Cc1cc(C)c(S(=O)(=O)NC2CC3CCC2C3)c(C)c1 (stereo not given) | -21.5 | – | 29.1 µM [falling, single point] |
| Cc1ccccc1CC(=O)Nc1cccc(S(=O)(=O)N2CCCC2)c1 | -14.1 | – | 5.17 µM [falling, partial curve] |
| O=C(CSCc1c(Cl)cccc1Cl)Nc1ccccc1C(=O)N1CCOCC1 | -19.1 | – | 2.31 µM [rising, partial curve] |
| C/C(N)=C(/C#N)C(=O)CSc1nc2ccc(C)cc2[nH]1 | 10.6 | 0.366 µM [rising, single point] | – |
| CC(CNCc1ccc2c(c1)OCO2)NCc1ccc2c(c1)OCO2 (stereo not given) | 6.42 | – | 0.146 µM [falling, full curve, poor fit] |
| COCCOC(=O)C1=C(C)N=C2SCCC(=O)N2C1c1ccc(OC(=O)c2ccco2)cc1 (stereo not given) | 16.4 | – | – |
| COc1ccc(CNc2nccs2)cc1 | 3.3 | – | 29.1 µM [rising, single point] |
| O=C(Nc1ccccc1)N1CCN(Cc2ccc(Cl)cc2)CC1 | 5.73 | – | – |
| c1ccc(CCN(Cc2ccccc2)C2CCN(C3CCCC3)CC2)cc1 | -31.5 | 32.6 µM [falling, single point] | 1.64 µM [falling, partial curve] |
| O=[N+]([O-])c1ccc(N2CCN(Cc3ccc(Br)o3)CC2)cc1 | – | – | 20.6 µM [falling, single point] |
| Cc1ccc(C)c(Cn2c3ccccc3c3cnn(CC(=O)NCCN4CCOCC4)c(=O)c32)c1 | -27.5 | – | 16.4 µM [falling, partial curve, poor fit] |
| Cc1ccc(NC(=O)C(=O)NCc2ccccn2)cc1 | – | – | 1.46 µM [rising, partial curve] |
| O=C(Cn1nc(C(F)F)cc1C(F)F)N/N=C/c1ccc2c(c1)OCO2 | 134 | 29.1 µM [rising, single point] | – |
| CCOc1cc2[nH]c(=S)n(Cc3ccc(C)o3)c(=O)c2cc1OCC | -169 | – | – |
| Cc1ccc(S(=O)(=O)N2CCCCC2)cc1C(=O)Nc1ccc2cn[nH]c2c1 | -18.6 | – | 0.0092 µM [rising, full curve, poor fit] |
| CCSCc1nnc(SCC(=O)Nc2nc(C)cs2)n1C | 20.6 | – | – |
| CCCc1cc(=O)oc2c(C)c(OCC(=O)N3CCC(C(=O)O)(c4ccccc4)CC3)ccc12 | 12.3 | – | – |
| CNc1ccc(/C=C(\C#N)C(=O)Nc2ccccn2)cc1[N+](=O)[O-] | 30.7 | 7.31 µM [rising, partial curve] | – |
| Cc1ccc(-c2nnc(-c3ccc(NC(=O)c4ccco4)cc3)o2)cc1 | – | 6.51 µM [falling, single point] | – |
| COc1cccc(CN(CC(=O)NCc2ccccc2)C(=O)c2csnn2)c1 | – | – | 0.00517 µM [falling, full curve, poor fit] |
